Results are given in words; binding and its absence hold for the method and conditions named. Binding seen in cells or lysates may run through a third protein. For some assays here: A result given as binding can be weak or reduced; the word gives no strength.

One assay has as its target GRINA TM4-6-HA. Put plainly: co-IP; immunoprecipitation with anti-HA agarose beads of spHA-TM9SF2, spHA-TM9SF2 CΔ3 or GRINA TM4-6-HA; Gb3 synthase detected (Figure S6D).
The target in assay [1] is spHA-TM9SF2 CΔ3 (spHA-TM9SF2 without the three C-terminal amino acids). The assay is described as above.

B1: Gb3 synthase (α1,4 galactosyltransferase) (enzyme, UniProt Q9NPC4 1-353)
chain: MSKPPDLLLRLLRGAPRQRVCTLFIIGFKFTFFVSIMIYWHVVGEPKEKGQLYNLPAEIPCPTLTPPTPPSHGPTPGNIFFLETSDRTNPNFLFMCSVESAARTHPESHVLVLMKGLPGGNASLPRHLGISLLSCFPNVQMLPLDLRELFRDTPLADWYAAVQGRWEPYLLPVLSDASRIALMWKFGGIYLDTDFIVLKNLRNLTNVLGTQSRYVLNGAFLAFERRHEFMALCMRDFVDHYNGWIWGHQGPQLLTRVFKKWCSIRSLAESRACRGVTTLPPEAFYPIPWQDWKKYFEDINPEELPRLLSATYAVHVWNKKSQGTRFEATSRALLAQLHARYCPTTHEAMKMYL
Consider B1, for which the figures for the binding result (with GRINA TM4-6-HA; in assay [1]) were “no binding” and “binds”, respectively.

These data come from paper PMC6348303.
